# Experimental data: the supplement of paper PMC6411743
# The chains behind the UniProt entries cited, without tags or fusion partners. Where a name states a change or a piece, a line headed by the entry shows the natural chain unless it says otherwise.
# UniProt Q6UUV9: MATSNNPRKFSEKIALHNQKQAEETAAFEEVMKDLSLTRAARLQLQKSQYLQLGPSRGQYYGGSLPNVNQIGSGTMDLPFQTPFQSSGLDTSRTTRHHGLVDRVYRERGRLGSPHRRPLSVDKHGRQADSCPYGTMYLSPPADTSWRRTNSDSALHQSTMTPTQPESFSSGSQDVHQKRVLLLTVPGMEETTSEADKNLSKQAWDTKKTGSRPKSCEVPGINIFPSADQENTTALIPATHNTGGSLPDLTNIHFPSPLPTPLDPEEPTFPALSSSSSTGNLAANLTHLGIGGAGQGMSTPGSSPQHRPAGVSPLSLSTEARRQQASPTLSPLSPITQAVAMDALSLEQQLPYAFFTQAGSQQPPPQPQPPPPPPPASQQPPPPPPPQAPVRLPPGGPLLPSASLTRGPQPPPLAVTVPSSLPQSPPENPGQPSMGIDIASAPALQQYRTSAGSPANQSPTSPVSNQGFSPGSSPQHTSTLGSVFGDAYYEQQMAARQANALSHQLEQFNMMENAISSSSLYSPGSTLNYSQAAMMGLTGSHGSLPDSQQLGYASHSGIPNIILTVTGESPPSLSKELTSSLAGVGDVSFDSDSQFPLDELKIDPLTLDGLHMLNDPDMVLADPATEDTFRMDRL
# UniProt O00505, whole entry: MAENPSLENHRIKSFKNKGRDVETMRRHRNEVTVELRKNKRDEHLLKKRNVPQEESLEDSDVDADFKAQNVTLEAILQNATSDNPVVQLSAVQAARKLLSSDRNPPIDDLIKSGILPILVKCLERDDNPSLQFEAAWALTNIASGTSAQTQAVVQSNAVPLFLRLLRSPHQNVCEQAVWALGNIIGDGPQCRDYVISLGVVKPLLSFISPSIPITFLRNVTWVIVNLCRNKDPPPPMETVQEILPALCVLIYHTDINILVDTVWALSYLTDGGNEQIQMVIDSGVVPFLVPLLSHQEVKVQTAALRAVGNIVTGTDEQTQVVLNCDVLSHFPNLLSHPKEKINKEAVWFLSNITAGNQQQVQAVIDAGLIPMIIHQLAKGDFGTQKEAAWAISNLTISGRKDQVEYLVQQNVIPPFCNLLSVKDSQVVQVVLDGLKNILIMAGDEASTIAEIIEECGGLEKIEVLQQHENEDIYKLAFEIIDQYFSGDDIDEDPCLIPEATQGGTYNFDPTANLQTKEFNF
# UniProt O14936: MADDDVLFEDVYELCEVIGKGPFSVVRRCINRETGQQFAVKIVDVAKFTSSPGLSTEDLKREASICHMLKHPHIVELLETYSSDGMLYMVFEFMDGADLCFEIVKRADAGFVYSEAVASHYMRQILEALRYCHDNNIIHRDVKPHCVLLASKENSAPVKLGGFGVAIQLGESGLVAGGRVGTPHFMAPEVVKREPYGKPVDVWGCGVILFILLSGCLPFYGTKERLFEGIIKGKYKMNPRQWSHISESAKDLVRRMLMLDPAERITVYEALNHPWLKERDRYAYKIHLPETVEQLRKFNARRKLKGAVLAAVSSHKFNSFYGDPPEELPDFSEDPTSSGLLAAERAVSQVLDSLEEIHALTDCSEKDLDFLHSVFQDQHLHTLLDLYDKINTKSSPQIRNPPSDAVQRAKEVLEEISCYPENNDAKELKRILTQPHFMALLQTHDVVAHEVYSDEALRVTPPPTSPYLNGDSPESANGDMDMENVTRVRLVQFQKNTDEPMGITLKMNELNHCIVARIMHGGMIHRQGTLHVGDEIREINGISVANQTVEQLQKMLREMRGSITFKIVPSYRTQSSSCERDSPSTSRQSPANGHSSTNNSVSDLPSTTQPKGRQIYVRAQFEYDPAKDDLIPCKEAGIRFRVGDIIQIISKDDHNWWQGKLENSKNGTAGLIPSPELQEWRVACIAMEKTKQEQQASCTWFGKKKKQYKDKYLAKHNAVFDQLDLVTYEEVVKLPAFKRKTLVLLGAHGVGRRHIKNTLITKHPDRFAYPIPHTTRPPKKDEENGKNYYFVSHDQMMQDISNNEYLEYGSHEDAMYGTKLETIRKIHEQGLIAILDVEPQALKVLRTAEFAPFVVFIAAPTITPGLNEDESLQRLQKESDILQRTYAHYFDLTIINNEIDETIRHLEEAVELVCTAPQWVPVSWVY
# UniProt O15020, whole entry: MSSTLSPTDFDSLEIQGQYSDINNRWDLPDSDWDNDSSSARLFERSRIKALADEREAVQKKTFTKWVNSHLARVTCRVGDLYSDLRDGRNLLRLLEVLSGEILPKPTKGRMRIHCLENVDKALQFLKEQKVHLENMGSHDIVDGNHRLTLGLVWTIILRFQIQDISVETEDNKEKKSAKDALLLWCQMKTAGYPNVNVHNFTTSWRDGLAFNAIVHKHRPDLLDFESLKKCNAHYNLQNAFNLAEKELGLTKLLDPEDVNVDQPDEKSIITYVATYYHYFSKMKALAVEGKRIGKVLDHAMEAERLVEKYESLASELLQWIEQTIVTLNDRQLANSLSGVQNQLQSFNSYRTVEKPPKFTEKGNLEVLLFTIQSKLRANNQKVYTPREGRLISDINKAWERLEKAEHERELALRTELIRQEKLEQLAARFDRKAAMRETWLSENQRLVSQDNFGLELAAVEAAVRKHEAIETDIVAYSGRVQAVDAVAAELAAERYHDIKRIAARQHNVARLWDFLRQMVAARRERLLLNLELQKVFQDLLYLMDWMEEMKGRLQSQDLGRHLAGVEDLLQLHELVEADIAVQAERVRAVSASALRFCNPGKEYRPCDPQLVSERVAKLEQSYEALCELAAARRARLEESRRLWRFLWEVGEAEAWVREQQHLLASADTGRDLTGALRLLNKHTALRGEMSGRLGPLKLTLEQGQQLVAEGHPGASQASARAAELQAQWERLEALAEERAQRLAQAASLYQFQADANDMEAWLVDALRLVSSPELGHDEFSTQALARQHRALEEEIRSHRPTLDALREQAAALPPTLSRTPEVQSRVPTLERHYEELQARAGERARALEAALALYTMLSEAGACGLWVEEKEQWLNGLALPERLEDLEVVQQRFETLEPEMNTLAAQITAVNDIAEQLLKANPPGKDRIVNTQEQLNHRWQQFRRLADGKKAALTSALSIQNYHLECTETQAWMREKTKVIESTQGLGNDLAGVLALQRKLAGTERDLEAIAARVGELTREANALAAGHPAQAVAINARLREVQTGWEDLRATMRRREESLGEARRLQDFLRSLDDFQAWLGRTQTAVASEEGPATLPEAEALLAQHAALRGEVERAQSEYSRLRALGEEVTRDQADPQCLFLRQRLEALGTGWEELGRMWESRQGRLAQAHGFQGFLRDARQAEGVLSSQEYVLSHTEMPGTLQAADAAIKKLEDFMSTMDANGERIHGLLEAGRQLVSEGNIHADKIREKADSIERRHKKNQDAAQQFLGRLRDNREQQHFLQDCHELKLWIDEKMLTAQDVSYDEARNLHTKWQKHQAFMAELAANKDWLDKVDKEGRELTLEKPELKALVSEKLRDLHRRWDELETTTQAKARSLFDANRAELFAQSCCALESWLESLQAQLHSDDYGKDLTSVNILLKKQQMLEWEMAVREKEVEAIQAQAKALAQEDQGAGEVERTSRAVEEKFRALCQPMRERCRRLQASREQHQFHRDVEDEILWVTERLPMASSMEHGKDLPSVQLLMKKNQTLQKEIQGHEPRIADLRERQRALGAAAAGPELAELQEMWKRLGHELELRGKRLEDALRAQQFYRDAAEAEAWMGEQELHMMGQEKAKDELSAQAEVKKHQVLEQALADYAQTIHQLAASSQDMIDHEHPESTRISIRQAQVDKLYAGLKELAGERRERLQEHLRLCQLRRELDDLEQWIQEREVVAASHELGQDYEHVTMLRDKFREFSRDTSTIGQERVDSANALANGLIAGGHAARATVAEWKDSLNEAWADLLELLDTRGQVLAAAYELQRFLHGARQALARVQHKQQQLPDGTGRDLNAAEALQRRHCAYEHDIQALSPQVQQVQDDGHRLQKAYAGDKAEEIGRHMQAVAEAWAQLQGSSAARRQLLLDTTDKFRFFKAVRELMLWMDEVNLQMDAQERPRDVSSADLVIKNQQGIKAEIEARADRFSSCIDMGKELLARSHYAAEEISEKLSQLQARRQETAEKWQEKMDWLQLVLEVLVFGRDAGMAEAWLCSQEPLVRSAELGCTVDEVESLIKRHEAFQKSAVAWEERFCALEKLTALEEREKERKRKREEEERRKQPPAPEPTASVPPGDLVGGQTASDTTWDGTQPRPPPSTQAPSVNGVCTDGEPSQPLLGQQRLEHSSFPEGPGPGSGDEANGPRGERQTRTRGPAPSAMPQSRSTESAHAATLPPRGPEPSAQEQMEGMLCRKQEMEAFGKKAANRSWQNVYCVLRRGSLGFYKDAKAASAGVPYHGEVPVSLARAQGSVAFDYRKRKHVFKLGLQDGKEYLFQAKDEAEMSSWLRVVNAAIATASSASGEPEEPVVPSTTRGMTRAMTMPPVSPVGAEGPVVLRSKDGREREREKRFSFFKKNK
# UniProt P52272: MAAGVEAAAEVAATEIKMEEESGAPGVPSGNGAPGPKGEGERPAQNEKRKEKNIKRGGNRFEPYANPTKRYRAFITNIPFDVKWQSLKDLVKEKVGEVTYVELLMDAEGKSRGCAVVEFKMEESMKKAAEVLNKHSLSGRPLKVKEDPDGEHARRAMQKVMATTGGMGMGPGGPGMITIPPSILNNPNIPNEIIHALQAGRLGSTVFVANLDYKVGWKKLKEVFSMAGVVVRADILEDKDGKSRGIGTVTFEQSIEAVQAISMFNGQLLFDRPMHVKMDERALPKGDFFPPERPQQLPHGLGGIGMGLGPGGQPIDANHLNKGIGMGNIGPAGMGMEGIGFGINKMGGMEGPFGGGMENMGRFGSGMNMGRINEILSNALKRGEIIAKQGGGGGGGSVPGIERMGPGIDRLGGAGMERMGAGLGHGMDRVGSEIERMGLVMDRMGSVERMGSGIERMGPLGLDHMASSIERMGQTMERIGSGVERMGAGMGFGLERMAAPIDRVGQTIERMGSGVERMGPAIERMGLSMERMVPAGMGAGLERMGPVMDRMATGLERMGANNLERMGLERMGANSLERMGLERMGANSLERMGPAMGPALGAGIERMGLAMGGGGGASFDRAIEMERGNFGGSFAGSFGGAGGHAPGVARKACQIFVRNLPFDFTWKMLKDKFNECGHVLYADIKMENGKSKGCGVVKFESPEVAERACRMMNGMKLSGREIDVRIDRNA
# UniProt O15498: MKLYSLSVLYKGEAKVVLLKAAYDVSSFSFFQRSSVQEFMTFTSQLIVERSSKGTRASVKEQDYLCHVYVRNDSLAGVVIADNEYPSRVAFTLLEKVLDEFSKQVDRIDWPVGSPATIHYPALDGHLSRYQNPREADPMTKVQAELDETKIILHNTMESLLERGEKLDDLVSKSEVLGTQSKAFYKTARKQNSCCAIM
# UniProt O00233: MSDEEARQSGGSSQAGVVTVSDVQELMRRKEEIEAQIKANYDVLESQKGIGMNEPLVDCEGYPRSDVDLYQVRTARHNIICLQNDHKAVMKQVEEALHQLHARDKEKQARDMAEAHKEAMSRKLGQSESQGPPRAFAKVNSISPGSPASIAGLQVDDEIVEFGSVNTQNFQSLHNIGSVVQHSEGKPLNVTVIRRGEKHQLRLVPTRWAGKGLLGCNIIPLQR
# UniProt O43809, whole entry: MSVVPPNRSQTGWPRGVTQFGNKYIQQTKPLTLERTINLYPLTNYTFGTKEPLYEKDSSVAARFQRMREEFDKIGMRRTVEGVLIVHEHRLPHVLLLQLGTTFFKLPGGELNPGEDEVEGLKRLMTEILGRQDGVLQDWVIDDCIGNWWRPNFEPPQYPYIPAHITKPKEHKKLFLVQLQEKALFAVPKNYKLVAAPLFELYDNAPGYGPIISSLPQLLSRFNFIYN
# UniProt O14933: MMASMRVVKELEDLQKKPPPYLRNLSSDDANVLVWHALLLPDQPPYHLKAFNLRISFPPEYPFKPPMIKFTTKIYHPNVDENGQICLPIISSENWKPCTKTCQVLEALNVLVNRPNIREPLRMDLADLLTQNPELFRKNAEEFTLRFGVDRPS
# UniProt O15160, whole entry: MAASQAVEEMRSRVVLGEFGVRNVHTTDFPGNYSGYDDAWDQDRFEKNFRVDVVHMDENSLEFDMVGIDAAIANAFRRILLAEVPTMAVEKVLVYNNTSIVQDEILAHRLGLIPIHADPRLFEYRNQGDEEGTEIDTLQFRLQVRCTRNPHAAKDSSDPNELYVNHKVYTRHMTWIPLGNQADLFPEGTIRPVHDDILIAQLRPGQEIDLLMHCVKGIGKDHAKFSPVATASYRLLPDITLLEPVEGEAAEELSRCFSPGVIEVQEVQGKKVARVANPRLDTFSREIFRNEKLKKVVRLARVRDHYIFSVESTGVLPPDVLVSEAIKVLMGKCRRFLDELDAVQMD
# UniProt O14530: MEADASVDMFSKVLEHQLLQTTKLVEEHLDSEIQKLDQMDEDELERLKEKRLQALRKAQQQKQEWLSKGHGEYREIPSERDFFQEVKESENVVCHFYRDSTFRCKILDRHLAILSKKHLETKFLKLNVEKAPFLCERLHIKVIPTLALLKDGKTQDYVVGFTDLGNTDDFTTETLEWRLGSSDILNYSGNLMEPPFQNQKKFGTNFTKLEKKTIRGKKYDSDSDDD
# ± gives the standard deviation of the averaged measurements. This is a selection; strong and weak results do not stand in their true shares. Small differences around the control level are noise.
# Compound: Nc1ncnc2c1ncn2[C@@H]1O[C@H](COP(=O)(O)OP(=O)(O)NP(=O)(O)O)[C@@H](O)[C@H]1O [adenylyl imidodiphosphate]
# Test: NP40-soluble protein abundance relative to vehicle (solubility fold change) (ratio); higher = more soluble protein in presence of AMP-PNP
# Details: concentration: 0.1mM
# Procedure, shortened: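 Values are fold changes against the detergent-processed vehicle, based on vsn-normalised intensities. Jurkat crude lysate was treated at eight concentrations from 0.1 to 10 mM (10 min at room temperature, then 3 min at 37 °C), solubilised with 0.8% NP40 and benzonase, ultracentrifuged and analysed by TMT-labelled LC-MS/MS over three independent experiments.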
row,Target,NP40-soluble protein abundance
1,UniProt O15530 and related entries,0.957 ± 0.074
2,M0QX46 and related entries (UniProt Q6UUV9),0.9758 ± 0.0022
3,KPNA3 (UniProt O00505),1.04 ± 0.021
4,UniProt O43156,1.02 ± 0.01
5,UniProt O14936 and related entries,0.986 ± 0.019
6,UniProt O15020 and related entries,0.994 ± 0.014
7,UniProt O00330 and related entries,1.07 ± 0.14
8,K7EMM8 and related entries (UniProt Q49A26),0.992 ± 0.023
9,UBFD1 (UniProt O14562),0.954 ± 0.043
10,M0QY01 and related entries (UniProt Q9UBC2),0.999 ± 0.02
11,M0QZM1 and related entries (UniProt P52272),1.01 ± 0.037
12,YKT6 (UniProt O15498),0.972 ± 0.05
13,XPOT (UniProt O43592),1.02 ± 0.021
14,UniProt O43663 and related entries,1.04 ± 0.033
15,UniProt O14732 and related entries,1.02 ± 0.044
16,PSMD9 (UniProt O00233),0.999 ± 0.016
17,K7ELE3 and related entries (UniProt Q08117),0.997 ± 0.024
18,BCAT2 (UniProt O15382),1.03 ± 0.043
19,NUDT21 (UniProt O43809),1.02 ± 0.042
20,UBE2L6 (UniProt O14933),0.992 ± 0.036
21,UniProt O00154-4|O00154-7|K7EKP8,1.01 ± 0.025
22,UniProt O43861 and related entries,0.994 ± 0.043
23,POLR1C (UniProt O15160),1.02 ± 0.028
24,TXNDC9 (UniProt O14530),0.982 ± 0.056

# Rewritten as tab-separated lines: entries from further up
row	Target	NP40-soluble protein abundance
6	UniProt O15020 and related entries	0.994 ± 0.014
7	UniProt O00330 and related entries	1.07 ± 0.14
